Assay results taken from patent publication US8895696 (dated 2014).

Assay: general procedure: Fmoc solid-phase peptide synthesis
Settings: for step yield: coupling step; for isolated yield: whole synthesis

Substance	step yield [%]	isolated yield [%]	other results
Fmoc-Pro-Ala-His-Gly-Val-(Ac3-Tn-α-Thr)-Ser-Ala-OH	67		
N-Fmoc-His-Gly-Val-(Ac3-Tn-α-Thr)-Ser-Ala-OH	71		
dNBS-Gly-Val-(Ac3-Tn-α-Thr)-Ser-Ala-OH			isolated yield (run 1): 49%; isolated yield (run 2): 48%
dNBS-Gly-Val-Thr-Ser-Ala-OH		62	
dNBS-His-Gly-Val-(Ac3-Tn-α-Thr)-Ser-Ala-OH		56	
dNBS-Val-Thr-Ser-Ala-OH		77	
